The source of these data is the supplement of paper PMC7666118.

Amino acid sequences for entries named in this document (tags omitted). A change or cut given only in a name is not applied to a line headed by its entry.
UniProt P21953: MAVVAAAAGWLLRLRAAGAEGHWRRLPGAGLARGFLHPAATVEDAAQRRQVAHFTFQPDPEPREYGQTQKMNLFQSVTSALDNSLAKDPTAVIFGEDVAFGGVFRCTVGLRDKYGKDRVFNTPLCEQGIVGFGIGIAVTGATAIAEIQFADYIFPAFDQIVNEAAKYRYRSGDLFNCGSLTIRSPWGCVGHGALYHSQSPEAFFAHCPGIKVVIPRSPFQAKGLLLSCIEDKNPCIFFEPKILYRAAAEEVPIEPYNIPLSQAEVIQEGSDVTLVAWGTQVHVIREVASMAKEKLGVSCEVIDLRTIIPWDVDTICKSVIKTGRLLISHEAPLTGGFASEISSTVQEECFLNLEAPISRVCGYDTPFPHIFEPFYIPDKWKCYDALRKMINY
UniProt Q86WA6: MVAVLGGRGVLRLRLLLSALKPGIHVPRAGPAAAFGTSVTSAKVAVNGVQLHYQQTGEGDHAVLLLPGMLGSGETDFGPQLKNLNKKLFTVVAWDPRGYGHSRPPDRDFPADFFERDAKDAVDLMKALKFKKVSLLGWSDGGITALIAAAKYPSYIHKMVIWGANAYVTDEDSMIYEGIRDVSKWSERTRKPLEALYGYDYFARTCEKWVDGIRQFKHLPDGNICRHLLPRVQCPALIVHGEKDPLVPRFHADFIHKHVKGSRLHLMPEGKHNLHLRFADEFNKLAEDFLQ
UniProt Q9HAS0: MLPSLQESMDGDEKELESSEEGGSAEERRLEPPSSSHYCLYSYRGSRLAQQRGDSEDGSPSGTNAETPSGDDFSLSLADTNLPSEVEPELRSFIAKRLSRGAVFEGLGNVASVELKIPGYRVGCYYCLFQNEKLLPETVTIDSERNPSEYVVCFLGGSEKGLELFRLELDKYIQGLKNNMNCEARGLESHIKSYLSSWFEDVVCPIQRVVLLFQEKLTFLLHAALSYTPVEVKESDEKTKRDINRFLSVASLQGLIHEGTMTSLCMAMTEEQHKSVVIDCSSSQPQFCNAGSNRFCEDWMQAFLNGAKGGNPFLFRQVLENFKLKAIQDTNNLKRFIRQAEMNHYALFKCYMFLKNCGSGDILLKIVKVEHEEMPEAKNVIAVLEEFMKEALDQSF
UniProt Q13895: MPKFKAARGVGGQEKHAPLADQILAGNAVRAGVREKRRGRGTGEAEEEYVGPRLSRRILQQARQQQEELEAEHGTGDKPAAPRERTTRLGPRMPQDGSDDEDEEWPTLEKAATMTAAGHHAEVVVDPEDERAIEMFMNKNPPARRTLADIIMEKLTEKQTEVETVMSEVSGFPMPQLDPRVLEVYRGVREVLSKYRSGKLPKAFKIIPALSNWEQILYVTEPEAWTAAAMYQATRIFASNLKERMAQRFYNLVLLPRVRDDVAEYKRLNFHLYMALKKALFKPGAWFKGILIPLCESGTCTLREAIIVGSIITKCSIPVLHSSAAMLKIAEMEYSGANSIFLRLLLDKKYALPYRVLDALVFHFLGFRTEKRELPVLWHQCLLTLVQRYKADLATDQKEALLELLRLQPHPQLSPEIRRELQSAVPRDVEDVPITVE
UniProt Q9Y2G3: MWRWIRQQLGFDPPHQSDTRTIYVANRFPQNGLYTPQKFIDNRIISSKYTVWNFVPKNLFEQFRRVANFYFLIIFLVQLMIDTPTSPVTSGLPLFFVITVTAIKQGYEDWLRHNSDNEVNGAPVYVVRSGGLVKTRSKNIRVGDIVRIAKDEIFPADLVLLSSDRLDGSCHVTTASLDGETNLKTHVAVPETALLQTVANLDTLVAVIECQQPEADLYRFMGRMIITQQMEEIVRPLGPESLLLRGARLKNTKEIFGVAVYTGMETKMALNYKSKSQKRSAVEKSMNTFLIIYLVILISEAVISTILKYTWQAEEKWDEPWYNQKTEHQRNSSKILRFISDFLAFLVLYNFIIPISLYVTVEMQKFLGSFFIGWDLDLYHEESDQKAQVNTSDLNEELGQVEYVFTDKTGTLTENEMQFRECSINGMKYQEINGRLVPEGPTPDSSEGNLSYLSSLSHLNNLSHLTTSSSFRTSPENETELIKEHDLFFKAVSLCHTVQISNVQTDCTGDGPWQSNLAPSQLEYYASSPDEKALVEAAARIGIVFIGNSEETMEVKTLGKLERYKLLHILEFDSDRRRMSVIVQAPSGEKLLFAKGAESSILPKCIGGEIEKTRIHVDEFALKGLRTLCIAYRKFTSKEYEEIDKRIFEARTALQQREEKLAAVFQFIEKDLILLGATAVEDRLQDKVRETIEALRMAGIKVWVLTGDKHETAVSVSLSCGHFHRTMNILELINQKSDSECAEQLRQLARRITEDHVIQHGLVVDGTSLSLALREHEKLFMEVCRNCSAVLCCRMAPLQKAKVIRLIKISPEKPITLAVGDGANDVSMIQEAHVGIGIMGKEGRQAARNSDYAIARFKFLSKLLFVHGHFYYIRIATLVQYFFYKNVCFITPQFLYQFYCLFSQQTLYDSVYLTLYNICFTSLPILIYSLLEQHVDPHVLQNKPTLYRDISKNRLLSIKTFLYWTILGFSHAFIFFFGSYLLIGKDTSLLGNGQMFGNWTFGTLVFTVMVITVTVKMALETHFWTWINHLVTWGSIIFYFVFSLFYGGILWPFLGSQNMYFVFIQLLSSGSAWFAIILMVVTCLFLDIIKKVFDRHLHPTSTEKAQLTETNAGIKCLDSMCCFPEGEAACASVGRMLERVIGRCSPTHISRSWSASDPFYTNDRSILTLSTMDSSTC
UniProt Q96G01: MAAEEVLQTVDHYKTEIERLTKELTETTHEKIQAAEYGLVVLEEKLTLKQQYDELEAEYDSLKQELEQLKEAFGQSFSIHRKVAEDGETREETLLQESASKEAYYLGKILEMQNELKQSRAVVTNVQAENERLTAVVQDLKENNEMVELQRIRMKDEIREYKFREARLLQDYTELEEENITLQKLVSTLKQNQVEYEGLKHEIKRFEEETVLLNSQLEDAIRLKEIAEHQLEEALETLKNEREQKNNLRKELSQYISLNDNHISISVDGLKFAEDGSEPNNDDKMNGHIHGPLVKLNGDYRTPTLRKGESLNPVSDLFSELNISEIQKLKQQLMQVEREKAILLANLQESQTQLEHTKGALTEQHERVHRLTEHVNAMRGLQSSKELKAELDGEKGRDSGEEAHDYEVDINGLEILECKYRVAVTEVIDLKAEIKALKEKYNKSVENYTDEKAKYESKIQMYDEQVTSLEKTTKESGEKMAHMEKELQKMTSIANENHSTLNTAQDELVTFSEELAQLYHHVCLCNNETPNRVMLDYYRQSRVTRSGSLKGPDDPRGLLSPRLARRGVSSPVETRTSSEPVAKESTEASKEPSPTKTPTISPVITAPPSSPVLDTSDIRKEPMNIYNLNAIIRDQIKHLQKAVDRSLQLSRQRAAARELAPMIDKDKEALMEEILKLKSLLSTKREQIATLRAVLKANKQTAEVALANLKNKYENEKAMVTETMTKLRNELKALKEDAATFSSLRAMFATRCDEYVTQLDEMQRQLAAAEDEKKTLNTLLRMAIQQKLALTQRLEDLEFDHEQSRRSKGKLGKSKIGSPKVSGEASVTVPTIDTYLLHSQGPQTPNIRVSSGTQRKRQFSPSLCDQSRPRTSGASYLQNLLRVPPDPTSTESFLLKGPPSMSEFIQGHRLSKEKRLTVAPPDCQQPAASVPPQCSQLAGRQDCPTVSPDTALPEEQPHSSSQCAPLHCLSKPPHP
UniProt P38606, whole entry: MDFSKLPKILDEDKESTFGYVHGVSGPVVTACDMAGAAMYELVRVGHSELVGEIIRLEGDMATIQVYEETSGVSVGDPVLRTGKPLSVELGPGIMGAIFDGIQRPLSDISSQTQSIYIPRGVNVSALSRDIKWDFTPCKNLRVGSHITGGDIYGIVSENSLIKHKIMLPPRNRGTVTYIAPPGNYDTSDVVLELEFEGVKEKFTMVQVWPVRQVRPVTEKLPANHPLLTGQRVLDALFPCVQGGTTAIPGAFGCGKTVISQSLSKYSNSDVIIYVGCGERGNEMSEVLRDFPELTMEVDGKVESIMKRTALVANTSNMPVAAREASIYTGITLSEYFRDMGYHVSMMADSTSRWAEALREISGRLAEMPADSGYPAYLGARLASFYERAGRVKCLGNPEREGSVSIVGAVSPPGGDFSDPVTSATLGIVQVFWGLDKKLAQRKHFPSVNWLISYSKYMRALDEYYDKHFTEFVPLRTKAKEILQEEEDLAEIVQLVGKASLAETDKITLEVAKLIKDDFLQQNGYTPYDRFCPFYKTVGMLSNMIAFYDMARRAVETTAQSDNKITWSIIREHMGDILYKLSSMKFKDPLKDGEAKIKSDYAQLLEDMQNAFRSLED
UniProt Q96ND0: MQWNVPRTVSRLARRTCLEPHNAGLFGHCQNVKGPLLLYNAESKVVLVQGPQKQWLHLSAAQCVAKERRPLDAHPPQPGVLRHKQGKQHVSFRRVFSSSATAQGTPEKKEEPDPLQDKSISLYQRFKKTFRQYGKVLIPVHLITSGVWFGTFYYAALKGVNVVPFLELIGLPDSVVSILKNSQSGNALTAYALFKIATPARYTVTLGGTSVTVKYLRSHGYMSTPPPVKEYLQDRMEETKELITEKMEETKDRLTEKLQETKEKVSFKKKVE
UniProt Q1ED39: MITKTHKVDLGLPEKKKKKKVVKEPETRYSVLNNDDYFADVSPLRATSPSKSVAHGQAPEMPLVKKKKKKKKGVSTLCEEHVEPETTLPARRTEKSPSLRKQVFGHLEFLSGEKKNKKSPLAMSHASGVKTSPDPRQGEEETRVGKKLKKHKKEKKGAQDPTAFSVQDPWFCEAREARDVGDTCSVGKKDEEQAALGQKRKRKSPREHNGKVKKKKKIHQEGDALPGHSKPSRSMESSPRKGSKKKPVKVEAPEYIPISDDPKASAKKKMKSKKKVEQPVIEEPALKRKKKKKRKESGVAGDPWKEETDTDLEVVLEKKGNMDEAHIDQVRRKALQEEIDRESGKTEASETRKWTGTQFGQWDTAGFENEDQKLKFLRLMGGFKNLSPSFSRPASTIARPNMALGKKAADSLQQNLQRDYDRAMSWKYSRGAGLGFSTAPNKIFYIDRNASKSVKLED
UniProt Q9NSY1, whole entry, looked up: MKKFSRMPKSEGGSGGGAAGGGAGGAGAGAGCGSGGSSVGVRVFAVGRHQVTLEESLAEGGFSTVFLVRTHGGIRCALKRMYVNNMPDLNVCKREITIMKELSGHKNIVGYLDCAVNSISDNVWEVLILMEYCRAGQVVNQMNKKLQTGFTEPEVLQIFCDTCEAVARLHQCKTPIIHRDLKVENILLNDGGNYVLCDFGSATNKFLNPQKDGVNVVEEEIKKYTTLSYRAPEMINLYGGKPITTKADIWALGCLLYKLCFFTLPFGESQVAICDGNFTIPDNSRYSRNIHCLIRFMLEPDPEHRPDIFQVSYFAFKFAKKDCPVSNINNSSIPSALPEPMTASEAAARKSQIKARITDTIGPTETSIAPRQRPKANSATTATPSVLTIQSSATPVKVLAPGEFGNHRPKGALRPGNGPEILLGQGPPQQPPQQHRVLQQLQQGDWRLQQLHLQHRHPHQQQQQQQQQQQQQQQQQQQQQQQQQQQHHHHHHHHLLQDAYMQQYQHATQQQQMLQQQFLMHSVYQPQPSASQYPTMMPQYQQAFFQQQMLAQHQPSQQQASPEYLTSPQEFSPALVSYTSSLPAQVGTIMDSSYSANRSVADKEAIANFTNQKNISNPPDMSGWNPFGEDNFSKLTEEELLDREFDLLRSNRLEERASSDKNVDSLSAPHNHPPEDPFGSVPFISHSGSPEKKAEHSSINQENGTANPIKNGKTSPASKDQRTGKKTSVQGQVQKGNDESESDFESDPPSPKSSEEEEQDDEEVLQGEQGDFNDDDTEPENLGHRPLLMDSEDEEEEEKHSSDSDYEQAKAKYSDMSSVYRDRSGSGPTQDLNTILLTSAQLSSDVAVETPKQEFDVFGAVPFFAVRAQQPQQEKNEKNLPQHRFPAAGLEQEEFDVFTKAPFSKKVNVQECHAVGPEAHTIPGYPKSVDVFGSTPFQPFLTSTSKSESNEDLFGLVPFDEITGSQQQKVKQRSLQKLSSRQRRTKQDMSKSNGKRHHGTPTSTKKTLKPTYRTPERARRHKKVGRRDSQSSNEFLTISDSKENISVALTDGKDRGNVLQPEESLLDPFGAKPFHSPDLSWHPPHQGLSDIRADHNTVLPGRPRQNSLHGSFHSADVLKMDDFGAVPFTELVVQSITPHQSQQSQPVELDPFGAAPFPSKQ
UniProt P54687: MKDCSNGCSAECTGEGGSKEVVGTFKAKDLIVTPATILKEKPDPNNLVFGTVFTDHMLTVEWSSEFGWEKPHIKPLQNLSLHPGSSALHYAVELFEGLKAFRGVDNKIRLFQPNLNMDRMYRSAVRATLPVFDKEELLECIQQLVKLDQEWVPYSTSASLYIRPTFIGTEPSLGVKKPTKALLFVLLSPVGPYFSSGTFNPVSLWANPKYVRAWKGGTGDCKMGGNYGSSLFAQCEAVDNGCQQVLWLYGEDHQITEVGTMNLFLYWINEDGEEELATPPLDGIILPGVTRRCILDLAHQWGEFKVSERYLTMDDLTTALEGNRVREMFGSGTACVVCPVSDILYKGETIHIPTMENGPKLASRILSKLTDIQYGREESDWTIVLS

Some of the results follow.

Compound in this assay: COc1ccc(Cn2ccc3cc(C)c(C(=O)NO)cc32)cc1
The assay can be described thus: dose-dependent thermal stabilisation call (2D-TPP, DLPTP, 10% FDR) (binary (1 = stabilised)); higher = stabilised by the compound. The settings on record: system: HL-60 intact cells; concentration range 0.04-10 µM. As to the method:
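2D thermal proteome profiling in intact HL-60 cells treated with BRD-3811 (0, 0.04, 0.29, 2, 10 uM) for 90 min at 37 C, then heated 3 min at one of 12 temperatures (42-63.9 C). Soluble protein was quantified by TMT10 MS. The value is the DLPTP call of the paper: dose-dependent thermal stabilisation over all temperatures at 10% FDR (F-test of a dose-response against a flat model); one experiment, one call per tested protein.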
Regarding C18ORF32 (UniProt Q8TCD1), the “dose-dependent thermal stabilisation call” value was inactive: 0.
The value for AVEN (UniProt Q9NQS1) was inactive: 0; that for C16ORF35 (UniProt Q12980) was inactive: 0.
Under C12ORF44 (UniProt Q9BSB4) stands inactive: 0; under C10ORF137 (UniProt Q3B7T1), inactive: 0; under C11ORF59 (UniProt Q6IAA8), inactive: 0.
C19ORF54 (UniProt Q5BKX5): the “dose-dependent thermal stabilisation call” value was inactive: 0.
Under UniProt B4DJG9_HUMAN stands inactive: 0.
Under BEND3 (UniProt Q5T5X7) stands inactive: 0; under BZW2 (UniProt Q9Y6E2), inactive: 0; under BRD8 (UniProt Q9H0E9), inactive: 0.
Under UniProt B3KTT6_HUMAN stands inactive: 0.
Consider C11ORF68 (UniProt Q9H3H3), for which the “dose-dependent thermal stabilisation call” value is inactive: 0.
The value for BCKDHB (UniProt P21953) was inactive: 0.
With BSG (UniProt P35613), the “dose-dependent thermal stabilisation call” value was inactive: 0.
The value for C14ORF4 (UniProt Q9H1B7) was inactive: 0; that for BECN1 (UniProt Q14457) was inactive: 0.
The value for BPHL (UniProt Q86WA6) was inactive: 0.
Under C17ORF75 (UniProt Q9HAS0) stands inactive: 0.
In the case of ATP1B1 (UniProt P05026), the “dose-dependent thermal stabilisation call” value is inactive: 0.
In the case of BMS1 (UniProt Q14692), the “dose-dependent thermal stabilisation call” value was inactive: 0.
Take C19ORF46 (UniProt Q8N205): the “dose-dependent thermal stabilisation call” value is inactive: 0.
The value for BYSL (UniProt Q13895) was inactive: 0; that for ATP11B (UniProt Q9Y2G3) was inactive: 0; that for BUD13 (UniProt Q9BRD0) was inactive: 0.
The value for BCAT2 (UniProt O15382) was inactive: 0; that for ATP5B (UniProt P06576) was inactive: 0; that for BICD1 (UniProt Q96G01) was inactive: 0.
Under C15ORF57 (UniProt Q9BV29) stands inactive: 0.
In the case of ATP6V1A (UniProt P38606), the “dose-dependent thermal stabilisation call” value was inactive: 0.
Take C10ORF28 (UniProt Q7Z5L2): the “dose-dependent thermal stabilisation call” value is inactive: 0.
The value for ATPAF2 (UniProt Q8N5M1) was inactive: 0; that for C18ORF19 (UniProt Q96ND0) was inactive: 0.
The value for B3GALTL (UniProt Q6Y288) was inactive: 0; that for C11ORF58 (UniProt O00193) was inactive: 0.
Take C16ORF88 (UniProt Q1ED39): the “dose-dependent thermal stabilisation call” value is inactive: 0.
As for BMP2K (UniProt Q9NSY1), the “dose-dependent thermal stabilisation call” value was inactive: 0.
On to BCAT1 (UniProt P54687), for which the “dose-dependent thermal stabilisation call” value was inactive: 0.
As for BRAF (UniProt P15056), the “dose-dependent thermal stabilisation call” value is inactive: 0.
The value for BAP1 (UniProt Q92560) was inactive: 0.
